Among the data in PMC3164655 are binding values, retold here.

In the experiment the target is CagL (H. pylori 26695 (endogenous)). As to the kind of experiment: affinity purification with mass spectrometry; polyclonal anti-CagL antibodies cross-linked to Protein A beads; RIPA lysate of WT H. pylori 26695 grown on solid media (48 h; 24 h for the comparison with ΔcagH and ΔcagI mutants); ΔcagL mutant processed in parallel as control; room temperature, washed in PBS with 0.1% Tween-20; MudPIT.

Results are given in words; binding and its absence hold for the method and conditions named. Binding seen in cells or lysates may run through a third protein. Here binding means that the protein was enriched with, or labelled near, the bait; the list need not be complete. A no says only that the protein was not detected with the bait.

B1: CagY (protein, UniProt D3XNT5 1-77)
chain: MGNANEVRDKFIQNYATSLKDSNDPQDFLRRVQELRINMQKNFISFDAYYNYLNNLVLASYTSLQTRKDFCRKHDQK
Consider B1, for which the binding result is “no binding”.
